Laboratory results published in PubChem BioAssay AID192 (DTP/NCI, 2004).
The list shows only some results of the screen, not a fair sample: it gathers tests that were run many times, whatever their T/C, doses with no T/C, and many T/C values between a quarter and a half above the control. Other doses and runs of a compound stand elsewhere. T/C is the treated group as % of the vehicle group. Some doses have a count of surviving animals in place of a T/C: the source files T/C as zero there, which appears to mark a toxic dose or a test without result, not a measured value. Some doses without a T/C left all or most animals alive at the check, yet need not have been tolerated: the source hardly ever lists a survival T/C far under the control, and the zero likely stands for such cases as well. Survivors were counted at the toxicity check, usually on the fifth day, unless a day is given; later deaths do not show. Schedule codes are those of the source, read here as Q, the interval in days (D) or hours (H), X, the number of doses. Some entries were tested several times; the values are given in rising order. For survival time, the PubChem record calls one and a half times the control and up active, and a quarter to a half above the control has no call in these data; cut-offs in other NCI protocols can differ. Some T/C values carry the count of animals alive at the toxicity check (mostly the fifth day); where none is given, no animal had died by that day.

Tested on: BDF1 mice, B16 melanoma ip, median survival T/C
Assay: NCI In Vivo Anticancer Drug Screen. Data for tumor model B16 Melanoma (intraperitoneal) in B6D2F1 (BDF1) mice
Settings: T/C endpoint: median survival time, higher T/C = longer survival
Summary of the method: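 Tumor-bearing mice received test compound or vehicle. Survival or tumor size was then measured in both groups. The treated-group figure was divided by the control-group figure.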

[1] = dose: 100.0 mg/kg/injection, schedule: Q01DX009 (ip), vehicle: Klucel (hydroxypropylcellulose) (HPC)
[2] = dose: 200.0 mg/kg/injection, schedule: Q01DX009 (ip), vehicle: saline with Tween-80
[3] = dose: 100.0 mg/kg/injection, schedule: Q01DX009 (ip), vehicle: saline with Tween-80
[4] = dose: 6.25 mg/kg/injection, schedule: Q01DX009 (ip), vehicle: saline
[5] = dose: 50.0 mg/kg/injection, schedule: Q01DX009 (ip), vehicle: saline
[6] = dose: 100.0 mg/kg/injection, schedule: Q01DX009 (ip), vehicle: saline
[7] = dose: 200.0 mg/kg/injection, schedule: Q01DX009 (ip), vehicle: saline
[8] = dose: 400.0 mg/kg/injection, schedule: Q01DX009 (ip), vehicle: saline with Tween-80
[9] = dose: 12.5 mg/kg/injection, schedule: Q01DX009 (ip), vehicle: saline with Tween-80
[10] = dose: 50.0 mg/kg/injection, schedule: Q01DX009 (ip), vehicle: saline with Tween-80
[11] = dose: 3.12 mg/kg/injection, schedule: Q01DX009 (ip), vehicle: saline
[12] = dose: 6.25 mg/kg/injection, schedule: Q01DX009 (ip), vehicle: saline with Tween-80
[13] = dose: 25.0 mg/kg/injection, schedule: Q01DX009 (ip), vehicle: saline with Tween-80

With `CCC1(O)CC(OC2CC(N(C)C)C(OC3CC(O)C(OC4CCC(=O)C(C)O4)C(C)O3)C(C)O2)c2c(cc3c(c2O)C(=O)c2c(O)ccc(O)c2C3=O)C1C(=O)OC` (stereo unspecified) the T/C (dose: 0.46 mg/kg/injection, schedule: Q01DX009 (ip), vehicle: saline with Tween-80) was 126 % of control [9 of 10 alive], the T/C (dose: 0.93 mg/kg/injection, schedule: Q01DX009 (ip), vehicle: saline with Tween-80) was 134 [9 of 10 alive] and 138 % of control and the survivor count (dose: 1.87 mg/kg/injection, schedule: Q01DX009 (ip), vehicle: saline with Tween-80) was 10 of 10. The survivor count (dose: 3.75 mg/kg/injection, schedule: Q01DX009 (ip), vehicle: saline with Tween-80) was 10 of 10, the survivor count (dose: 7.5 mg/kg/injection, schedule: Q01DX009 (ip), vehicle: saline with Tween-80) was 9 of 10 and the survivor count (dose: 10.0 mg/kg/injection, schedule: Q01DX001 (ip), vehicle: water) was 8 of 8. For the same compound, the survivor count (dose: 15.0 mg/kg/injection, schedule: Q01DX009 (ip), vehicle: saline with Tween-80) was 0 of 10 and the survivor count (dose: 16.7 mg/kg/injection, schedule: Q01DX001 (ip), vehicle: water) was 2 of 8 and 3 of 8.

`CCCCCCCCCCCCCCCC(=O)N(CCC#N)CCCCCCCCCN(CCC#N)C(=O)CCCCCCCCCCCCCCC` was tested, and the survivor count (dose: 50.0 mg/kg/injection, schedule: Q04DX003 (ip), vehicle: Klucel (hydroxypropylcellulose) (HPC)) was 10 of 10.

In the case of `Clc1c(Cl)c(CBr)c(Cl)c(CBr)c1Cl`, the T/C (dose: 3.12 mg/kg/injection, schedule: Q01DX009 (ip), vehicle: Klucel (hydroxypropylcellulose) (HPC)) is reported as 125 % of control, the survivor count (dose: 25.0 mg/kg/injection, schedule: Q01DX009 (ip), vehicle: Klucel (hydroxypropylcellulose) (HPC)) is reported as 10 of 10 and the survivor count (dose: 50.0 mg/kg/injection, schedule: Q01DX009 (ip), vehicle: Klucel (hydroxypropylcellulose) (HPC)) is reported as 9 of 10. The survivor count (dose: 50.0 mg/kg/injection, schedule: Q04DX003 (ip), vehicle: saline with Tween-80) was 10 of 10, the survivor count [1] was 10 of 10 and the survivor count (dose: 100.0 mg/kg/injection, schedule: Q04DX003 (ip), vehicle: saline with Tween-80) was 10 of 10. For the same compound, the survivor count (dose: 200.0 mg/kg/injection, schedule: Q01DX009 (ip), vehicle: Klucel (hydroxypropylcellulose) (HPC)) was 7 of 10, the survivor count [2] was 6 of 10 and the survivor count (dose: 200.0 mg/kg/injection, schedule: Q04DX003 (ip), vehicle: saline with Tween-80) was 10 of 10. For the same compound, the survivor count (dose: 400.0 mg/kg/injection, schedule: Q04DX003 (ip), vehicle: saline with Tween-80) was 10 of 10.

For `Cc1c(Cl)cccc1NC(=O)c1ccc(Cl)cc1`, the survivor count (dose: 300.0 mg/kg/injection, schedule: Q01DX009 (ip), vehicle: Klucel (hydroxypropylcellulose) (HPC)) was 9 of 10.

For `CCOC(=O)C(C)C(=O)O` (stereo unspecified), the survivor count [3] was 10 of 10 and the survivor count [2] was 10 of 10.

With `Cc1cn(C2CC3[O][Sn]([c]4ccccc4)([c]4ccccc4)[O]CC3O2)c(=O)[nH]c1=O` (stereo unspecified) the T/C [4] was 131 % of control, the T/C [5] was 131 % of control and the T/C [6] was 133 % of control. For the same compound, the survivor count [6] was 10 of 10 and the survivor count [7] was 5 of 10 and 10 of 10.

In the case of `COc1cccc2c1C(=O)c1c(O)c3c(c(O)c1C2=O)C[C@@](O)(C(=O)COC(=O)Cc1cccc2ccccc12)C[C@@H]3OC1CC(N)C(O)C(C)O1` (stereo partly specified), the T/C (dose: 0.5 mg/kg/injection, schedule: Q01DX009 (ip), vehicle: saline with Tween-80) is reported as 135 % of control, the survivor count (dose: 8.0 mg/kg/injection, schedule: Q01DX009 (ip), vehicle: saline with Tween-80) is reported as 10 of 10 and the survivor count (dose: 16.0 mg/kg/injection, schedule: Q01DX009 (ip), vehicle: saline with Tween-80) is reported as 10 of 10.

For `CCC(=O)O[C@H]1CC[C@H]2[C@@H]3CCC4=CC(=O)CC[C@]4(C)[C@H]3CC[C@]12C`, the survivor count (dose: 160.0 mg/kg/injection, schedule: Q02DX009 (ip), vehicle: Klucel (hydroxypropylcellulose) (HPC)) was 10 of 10 and the survivor count (dose: 640.0 mg/kg/injection, schedule: Q02DX009 (ip), vehicle: Klucel (hydroxypropylcellulose) (HPC)) was 10 of 10.

In the case of `ClC1(c2ccccc2)c2ccc(Br)cc2-c2cc(Br)ccc21`, the survivor count [8] is reported as 6 of 6.

`CCOC(=O)C1=C(C)O/C(=C/c2cccc(Cl)c2)C1=O` was tested, and the survivor count [3] was 10 of 10, the survivor count [2] was 0 of 10 and the survivor count [8] was 0 of 10.

With `Nc1ccc2c(c1)CN1C(=O)c3ccccc3C1=N2` the survivor count [3] was 10 of 10 and the survivor count [2] was 10 of 10.

In the case of `COc1cc2c(cc1OC)C(OC)N(C)c1c-2ccc2cc3c(cc12)OCO3` (stereo unspecified), the T/C [9] is reported as 126 % of control, the survivor count [10] is reported as 9 of 10 and the survivor count [3] is reported as 6 of 10.

`COc1ccc(CN(CCOC(=O)c2ccc(OC)cc2)CCN(CCOC(=O)c2ccc(OC)cc2)Cc2ccc(OC)cc2)cc1` was tested, and the survivor count (dose: 25.0 mg/kg/injection, schedule: Q01DX009 (ip), vehicle: other) was 10 of 10, the survivor count (dose: 50.0 mg/kg/injection, schedule: Q01DX009 (ip), vehicle: other) was 10 of 10 and the survivor count (dose: 100.0 mg/kg/injection, schedule: Q01DX009 (ip), vehicle: other) was 10 of 10. For the same compound, the survivor count (dose: 200.0 mg/kg/injection, schedule: Q01DX009 (ip), vehicle: other) was 10 of 10.

For `CC(=O)OCC1OC(n2cnc3c(=S)nc(N)[nH]c32)C(OC(C)=O)C1OC(C)=O` (stereo unspecified), the survivor count [5] was 10 of 10.

In the case of `O=C(O)CSC(CC(=O)O)C(=O)O` (stereo unspecified), the T/C [6] is reported as 125 % of control.

With `CC(CC1c2ccccc2CCc2ccccc21)CN(C)C` (stereo unspecified) the T/C [11] was 138 % of control, the T/C (dose: 25.0 mg/kg/injection, schedule: Q01DX009 (ip), vehicle: saline) was 136 % of control and the T/C [5] was 125 % of control. For the same compound, the survivor count [6] was 6 of 10, the survivor count [7] was 0 of 10 and the survivor count (dose: 400.0 mg/kg/injection, schedule: Q01DX009 (ip), vehicle: saline) was 0 of 10.

For `C[CH2][Pb]([CH2]C)([CH2]C)[n]1cnc2ccccc21`, the survivor count (dose: 3.0 mg/kg/injection, schedule: Q01DX009 (ip), vehicle: Klucel (hydroxypropylcellulose) (HPC)) was 10 of 10, the survivor count (dose: 6.0 mg/kg/injection, schedule: Q01DX009 (ip), vehicle: Klucel (hydroxypropylcellulose) (HPC)) was 7 of 10 and the survivor count (dose: 12.0 mg/kg/injection, schedule: Q01DX009 (ip), vehicle: Klucel (hydroxypropylcellulose) (HPC)) was 0 of 10.

With `CCNNC(=O)[C@@H]1[C@H](c2cc(OC)c(OC)c(OC)c2)c2cc3c(cc2[C@H](O)[C@H]1CO)OCO3` the survivor count [2] was 1 of 6.

In the case of `COc1ccc2nc3cc(Cl)ccc3c(NCCNCCNCCNc3c4ccc(Cl)cc4nc4ccc(OC)cc34)c2c1`, the T/C (dose: 3.12 mg/kg/injection, schedule: Q01DX009 (ip), vehicle: saline with Tween-80) is reported as 131 % of control, the T/C [11] is reported as 138 % of control and the T/C [12] is reported as 141 % of control. The T/C [4] was 132 % of control, the T/C [9] was 131 % of control [9 of 10 alive] and the T/C [13] was 132 % of control. The T/C [10] was 138 % of control, the T/C [5] was 133 % of control and the survivor count [1] was 7 of 10. For the same compound, the survivor count [3] was 8 of 10 and the survivor count [6] was 3 of 10.

With `CC1(C)N=C(N)N=C(N)N1c1ccc(CCCCc2cccc(S(=O)(=O)F)c2)c(Cl)c1` the survivor count (dose: 40.0 mg/kg/injection, schedule: Q01DX009 (ip), vehicle: saline) was 2 of 6.

`O=C1C(=O)c2ccccc2C(O)=C1CCCc1ccc(C2CCCCC2)cc1` was tested, and the survivor count [12] was 10 of 10, the survivor count [9] was 10 of 10 and the survivor count [13] was 10 of 10. The survivor count [10] was 10 of 10 and the survivor count [3] was 5 of 10.

`CCN(CC)CCCC(C)Nc1cc(C)nc(Nc2nc3cc(Cl)c(Cl)cc3[nH]2)n1` (stereo unspecified) was tested, and the survivor count (dose: 20.0 mg/kg/injection, schedule: Q01DX009 (ip), vehicle: Klucel (hydroxypropylcellulose) (HPC)) was 10 of 10.

For `CC(C)C(=O)OCC1OC(n2cnc3c(=S)nc(N)[nH]c32)C(OC(=O)C(C)C)C1OC(=O)C(C)C` (stereo unspecified), the survivor count [9] was 6 of 6, the survivor count [13] was 6 of 6 and the survivor count [10] was 5 of 6. The survivor count [3] was 6 of 6, the survivor count [2] was 6 of 6 and the survivor count [8] was 4 of 6.
